Consider one sequence from paper PMC6393296.

The exact form of at least one protein or probe is not confirmed. The comparison behind a weaker result is the experiment's own reference, which may not be listed here.

This data set relates to Mlh1 (WT, FLAG) + Pms1 (WT). Description: filter binding. To be noted: 1 mM ATP, 2 mM Mg2+, reduced vs no ATP, Filter binding: 20 mM Tris-HCl pH 7.5, 20 mM NaCl (25 mM in legends), 0.01 mM EDTA, 2 mM MgCl2, 40 ug/ml BSA, 0.1 mM DTT, 15 nM DNA, 30 C, 10 min, recombinant protein, protein details: FLAG inserted at position 499, label: 5'-32P on AO3142.

As for “GGGTCAACGTGGGCAAAGATGTCCTAGCAAGTCAGAATTCGGTAGCGTG (double strand) [49-bp homoduplex AO3142/AO3144]”, the binding result is reported as “binds more weakly”.
